This experiment has as its target c‐Myc protein (human (endogenous in MOLM-13)) (UniProt P01106). The experiment in a line: co-IP; endogenous co-IP from MOLM-13 cells treated with WBC100 (2 uM) or DMSO in the presence of MG-132 (10 uM) for 4 h; NP40 lysis buffer; c-Myc antibody and protein G magnetic beads, 4 °C; blots for CHIP and Hsp70.

Protein sequences, listed by entry. Tags and fused reporters are not part of them.
UniProt P01106: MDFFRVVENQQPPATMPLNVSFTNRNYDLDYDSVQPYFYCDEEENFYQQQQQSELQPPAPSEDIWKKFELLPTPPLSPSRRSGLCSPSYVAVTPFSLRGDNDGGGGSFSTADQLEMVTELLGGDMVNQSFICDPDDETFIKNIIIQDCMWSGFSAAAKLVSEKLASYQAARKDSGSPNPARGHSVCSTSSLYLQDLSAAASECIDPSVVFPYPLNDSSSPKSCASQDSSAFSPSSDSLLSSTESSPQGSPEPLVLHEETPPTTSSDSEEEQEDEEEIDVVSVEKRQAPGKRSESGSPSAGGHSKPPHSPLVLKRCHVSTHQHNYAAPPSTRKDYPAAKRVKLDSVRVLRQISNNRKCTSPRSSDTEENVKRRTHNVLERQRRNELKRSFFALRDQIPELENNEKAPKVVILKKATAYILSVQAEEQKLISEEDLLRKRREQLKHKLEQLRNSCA
UniProt Q9UNE7: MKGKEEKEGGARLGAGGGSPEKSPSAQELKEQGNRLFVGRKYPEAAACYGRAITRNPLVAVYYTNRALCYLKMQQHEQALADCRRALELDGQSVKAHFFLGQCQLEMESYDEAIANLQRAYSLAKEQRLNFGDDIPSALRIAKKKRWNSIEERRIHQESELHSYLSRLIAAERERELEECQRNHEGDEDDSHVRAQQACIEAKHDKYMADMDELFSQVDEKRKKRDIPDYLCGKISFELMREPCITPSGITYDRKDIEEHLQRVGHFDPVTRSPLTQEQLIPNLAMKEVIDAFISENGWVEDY

These are yes or no findings as the source states them, for the method shown. In cells and extracts the contact can be indirect. Some binding calls cover weakened binding; strength is not graded here.

“E3 ubiquitin ligase CHIP (from UniProt Q9UNE7 1-303) (enzyme)”: the binding result is on record as “binds”.
